Here are results for 38 compounds from PubChem BioAssay AID2685 (National Center for Advancing Translational Sciences (NCATS), 2010).

This assay in a line: qHTS Assay for Lipid Storage Modulators in Drosophila S3 Cells.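 As to cell number change: cells counted by Cell Tracker Red CMTPX staining in the red channel.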 The conditions noted are these: BODIPY lipid droplet fluorescence, 18-24 h; for cell number change: measured here: cell count max response, cells fed with added oleic acid. In a few lines:
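Drosophila S3 cells got compounds at several concentrations plus oleic acid (400 uM solution). Laser-scanning cytometry with 488 nm excitation read lipid droplets at 500-530 nm and cells at 575-640 nm. Percent activity was relative to 20 uM Triacsin C.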
In general terms: Quantitative high-throughput screening tests each substance at several concentrations.

Where [1] appears, read: measured here: lipid fluorescence (Fed channel) AC50, cells fed with added oleic acid.
The mark [2] stands for this setting: measured here: cell number channel AC50, cells fed with added oleic acid.

Broadly, the AC50 is the midpoint of the concentration-response curve, whichever way the signal moves. A high value points to weaker potency.

Molecules are shown by their SMILES. This is one part of the list. The main result of the screen is listed elsewhere. These columns were measured beside it and carry no call. The list favours compounds with an active or inconclusive main result. The note in brackets gives the kind of curve behind each potency; many fits are weak.

As to `N#CCCn1nc(-c2ccccc2)cc1Nc1ccccc1NC(=O)c1cccs1`, the cell number change is -21.1%. Besides, the half-maximal activity concentration (AC50) under setting [1] was 0.58 µM [rising, partial curve]. Turning to `COc1ccc(C(=O)Oc2c(OC)cc(C(=S)N3CCOCC3)cc2OC)cc1OC`, the cell number change is -1.46%. Regarding `COc1ccc(-c2nnc(SCC(=O)NC3CCCCC3)o2)cc1`, the cell number change is 16.7%. Moreover, the AC50 under setting [1] was 29.1 µM [falling, partial curve].

In the case of `N#CCCN1CCN(S(=O)(=O)c2ccc(S(=O)(=O)N3CCCCCC3)cc2)CC1`, the cell number change is -23.9%. In addition, the half-maximal activity concentration (AC50) under setting [1] was 3.26 µM [falling, full curve, poor fit]. On to `CC1CN(Cc2ccccn2)CCC1=O` (stereo not given), for which the cell number change is -45.7%. For the same compound, the concentration at half-maximal activity (AC50) under setting [2] is 3.66 µM [falling, full curve, poor fit]. For the same compound, the AC50 under setting [1] was 0.058 µM [falling, full curve]. Consider `CCN(CC(=O)Nc1ccccc1C(F)(F)F)C(=O)c1ccc2c(=O)n3c(nc2c1)CCC3`, for which the cell number change was -12.2%. Further, the AC50 under setting [1] was 0.082 µM [falling, partial curve, poor fit]. For the compound `COc1ccc(N2CCN(C(=O)CNC(=O)c3ccc(Br)o3)CC2)cc1`, the cell number change was -2.31%. Further, the concentration at half-maximal activity (AC50) under setting [1] was 0.00461 µM [falling, full curve, poor fit]. Turning to `O=C(NCc1ccco1)C(C(=O)c1ccccc1)n1ccccc1=O` (stereo not given), the cell number change amounted to 4.63%. In the case of `COc1ccc(NC(=O)c2cc(-c3ccc(OC)c(OC)c3)nc3ccccc23)c(OC)c1`, the cell number change is 13.7%. Also, the concentration at half-maximal activity (AC50) under setting [1] is 0.651 µM [falling, single point]. As for `O=C1CN(S(=O)(=O)c2ccc(Br)cc2)c2ccccc2N1`, the cell number change was 16.2%. Besides, under setting [1], the concentration at half-maximal activity (AC50) was 0.58 µM [rising, single point]. For `CC(=O)Nc1ccc2nc(-c3ccco3)[nH]c2c1`, the cell number change was -51.6%.

On to `Cc1cc(-c2n[nH]c(=S)n2/N=C/C(Cl)=C/c2ccccc2)n[nH]1`, for which the cell number change is -54.3%. Besides, the half-maximal activity concentration (AC50) under setting [2] is 13 µM [falling, partial curve]. Under setting [1], the AC50 was 25.9 µM [falling, partial curve, poor fit]. For the compound `CCOC(=O)CN1NC2(CCC(C)CC2)NC1=S` (stereo not given), the AC50 under setting [1] was 6.51 µM [falling, single point]. Regarding `N#CC1=C(N)Oc2n[nH]c(-c3cccs3)c2C1c1ccsc1` (stereo not given), the cell number change was -11.3%. As for `COc1ccc(CNC(=O)C(C)N2C(=O)NC3(CCCCCCC3)C2=O)cc1` (stereo not given), the cell number change is -42.1%. Moreover, the AC50 under setting [2] is 0.92 µM [falling, full curve]. Also, under setting [1], the AC50 is 6.51 µM [falling, partial curve]. As to `Cc1ccc(NC(=O)CCN2C(=O)C3CC=CCC3C2=O)cc1Cl` (stereo not given), the cell number change was -37.4%. In addition, the AC50 under setting [2] is 32.6 µM [falling, single point]. Also, the AC50 under setting [1] is 29.1 µM [falling, single point]. `CC(C)c1ccc(NC2CCCN(C(=O)c3ccco3)C2)cc1` (stereo not given): the cell number change was -14.2%. The AC50 under setting [1] is 18.4 µM [rising, partial curve]. As to `C=CCNC(=O)COc1ccc(Br)cc1Cl`, the cell number change turned out to be 21%. The AC50 under setting [2] is 0.92 µM [rising, single point]. Regarding `COc1ccc(/C=N/n2c(SC)nnc2-c2ccccc2)cc1C`, the cell number change is 64.1%. For the same compound, under setting [2], the concentration at half-maximal activity (AC50) is 20.6 µM [rising, partial curve]. Under setting [1], the AC50 was 1.3 µM [rising, full curve]. Consider `CCCc1ccc(-c2cc(C(=O)NCCc3ccc(S(N)(=O)=O)cc3)c3ccccc3n2)cc1`, for which the cell number change was -4.62%.

For `O=C1Nc2ccccc2C1(O)c1ccccc1` (stereo not given), the cell number change turned out to be 43.5%. Regarding `COc1ccccc1NC(=O)CS(=O)(=O)c1cccc2nsnc12`, the cell number change is -27.8%. Moreover, the AC50 under setting [1] is 0.0259 µM [falling, full curve, poor fit]. Consider `O=C(CN1CCN(c2nc(-c3ccc(Cl)cc3)cs2)CC1)NCc1ccco1`, for which the cell number change turned out to be 39.2%. Besides, the AC50 under setting [2] was 29.1 µM [rising, single point]. In addition, the AC50 under setting [1] was 18.4 µM [rising, single point]. In the case of `O=C(NC1CCCC1)c1cc(-c2ccccc2Cl)on1`, the cell number change worked out at 16.8%. Under setting [1], the AC50 was 0.206 µM [rising, single point]. With `O=C(NCc1ccccc1)C1CCCN(S(=O)(=O)c2cccnc2)C1` (stereo not given), the concentration at half-maximal activity (AC50) is 1.16 µM [rising, partial curve] under setting [2] and 0.731 µM [rising, partial curve] under setting [1].

With `O=S1(=O)CCO[C@H]2Cc3ccccc3[C@H]2N1Cc1ccc(F)cc1`, the cell number change was 18.3%. For `COC(=O)C1=NN(c2ccccc2)C2C(=O)N(c3ccccc3OC)C(=O)C12` (stereo not given), the cell number change amounted to 47.1%. Further, the concentration at half-maximal activity (AC50) under setting [2] is 3.26 µM [rising, full curve]. In addition, the concentration at half-maximal activity (AC50) under setting [1] was 6.51 µM [falling, single point].

On to `CSCCC(NC(=O)c1ccccc1)C(=O)NCCc1ccc2c(c1)OCCO2` (stereo not given), for which the AC50 was 0.259 µM [falling, full curve, poor fit] under setting [2] and 0.291 µM [falling, partial curve, poor fit] under setting [1]. Take `NC(=O)c1cn(Cc2c(F)cccc2F)nn1`: the cell number change is -4.1%. Besides, the half-maximal activity concentration (AC50) under setting [1] was 0.184 µM [rising, full curve, poor fit]. On to `CC1CCN(C(=O)CCc2nnc(-c3ccccc3)o2)CC1`, for which the cell number change was -1.8%. Further, the AC50 under setting [1] was 0.291 µM [falling, full curve, poor fit]. For the compound `CC(/C=C/c1ccco1)=N/NC(=O)CNc1ccccc1C`, the cell number change was 29.2%. Besides, the AC50 under setting [1] is 25.9 µM [rising, single point]. As for `CC(=O)c1cccc(NS(=O)(=O)c2c(C(=O)N3CCOCC3)c(C)n(C)c2C)c1`, the cell number change was -18.1%. For the same compound, under setting [1], the half-maximal activity concentration (AC50) is 6.51 µM [falling, single point]. Regarding `CCCCCCOc1ccc(NC(=O)CC2C(=O)N(CC)C(=S)N2Cc2ccco2)cc1` (stereo not given), the cell number change worked out at 28.3%. Moreover, under setting [1], the half-maximal activity concentration (AC50) is 6.51 µM [rising, single point]. On to `COc1ccc(N2CCN(C(c3cccc(OC)c3OC)c3nnnn3C3CCCC3)CC2)cc1` (stereo not given), for which the cell number change is 36.2%. Further, the half-maximal activity concentration (AC50) under setting [2] is 7.31 µM [rising, partial curve, poor fit]. Besides, the AC50 under setting [1] was 1.84 µM [falling, partial curve]. In the case of `CCOC(=O)C1=C(CSc2nc(-c3ccncc3)ccc2C#N)OC(N)=C(C#N)C1c1cccnc1` (stereo not given), the cell number change was -10.7%. In addition, the concentration at half-maximal activity (AC50) under setting [1] was 0.82 µM [rising, single point]. For `O=Cc1ccc(OCc2nnc(-c3ccccc3Br)o2)cc1`, the cell number change was 10.5%. Also, the AC50 under setting [1] was 0.00461 µM [falling, full curve, poor fit]. Regarding `CCCN1CCC(=O)N(CCSc2ccccc2)CC1`, the cell number change came out at 15%. Regarding `COc1ccc(-c2ccc(-c3noc(-c4ccc(OC)c(OC)c4)n3)c(OC)n2)cc1`, the cell number change was 2.15%. Moreover, under setting [1], the AC50 was 0.651 µM [falling, full curve, poor fit].
